# Assay results taken from US20240156901A1, “GAL3BP POLYPEPTIDE COMPOSITIONS AND METHODS FOR TREATMENT OF CANCER AND DETERMINING TREATMENT RESPONSIVENESS” (UNIVERSITY OF PITTSBURGH-OF THE COMMONWEALTH SYSTEM OF …, priority 2021, published 2024).
# At least one compound was matched to its structure with a doubt left.
# Test system: CHI3L1 expression
# Experiment: qRT-PCR and immunoblot of CHI3L1 in hNSC-p53DN-AKT
# Assay type: cell-based, human
# Conditions: 100 nM, 24 hours
compound,measurement,value
CO[C@H]1C[C@@H]2CC[C@@H](C)[C@@](O)(O2)C(=O)C(=O)N2CCCC[C@H]2C(=O)O[C@H]([C@H](C)C[C@@H]2CC[C@@H](O)[C@H](OC)C2)CC(=O)[C@H](C)/C=C(\C)[C@@H](O)[C@@H](OC)C(=O)[C@H](C)C[C@H](C)/C=C/C=C/C=C/1C [rapamycin],CHI3L1 mRNA and protein expression,decreased CHI3L1 mRNA and protein expression
